Some entries share one result that the patent states for a list of compounds.
Experiments:
[1] = biological target: T1, Recombinant human IKKβ (residues 1-737) (Homo sapiens, UniProt O14920); test: IKK2 assay (TR-FRET); format: biochemical; conditions: ATP 1 μM final
T1 construct: Recombinant human IKKβ (residues 1-737); GST (C); made in house
T1 sequence (O14920 1-737): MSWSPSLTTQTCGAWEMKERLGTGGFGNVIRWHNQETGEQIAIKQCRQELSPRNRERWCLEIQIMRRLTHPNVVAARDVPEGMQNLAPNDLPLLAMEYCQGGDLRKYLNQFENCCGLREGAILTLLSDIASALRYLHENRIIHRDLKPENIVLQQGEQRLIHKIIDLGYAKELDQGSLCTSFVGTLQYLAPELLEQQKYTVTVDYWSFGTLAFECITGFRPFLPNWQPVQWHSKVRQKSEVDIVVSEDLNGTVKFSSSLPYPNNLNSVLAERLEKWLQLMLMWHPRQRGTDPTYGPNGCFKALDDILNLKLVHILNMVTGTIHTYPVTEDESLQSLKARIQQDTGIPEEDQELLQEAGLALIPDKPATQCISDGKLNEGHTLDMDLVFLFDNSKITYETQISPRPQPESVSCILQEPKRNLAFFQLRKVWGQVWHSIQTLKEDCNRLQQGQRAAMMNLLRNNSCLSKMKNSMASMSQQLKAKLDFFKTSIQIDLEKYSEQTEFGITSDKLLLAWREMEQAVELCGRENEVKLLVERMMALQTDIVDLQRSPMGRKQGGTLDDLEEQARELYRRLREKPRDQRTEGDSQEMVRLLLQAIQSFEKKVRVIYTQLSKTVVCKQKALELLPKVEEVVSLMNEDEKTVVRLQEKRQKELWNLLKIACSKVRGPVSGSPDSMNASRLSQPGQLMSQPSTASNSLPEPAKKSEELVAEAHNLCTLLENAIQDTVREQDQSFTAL
Protocol: Recombinant human IKKβ (residues 1-737) was expressed in baculovirus as a C-terminal GST-tagged fusion protein, and its activity was assessed using a time-resolved fluorescence resonance energy transfer (TR-FRET) assay. Briefly, IKK2 (0.5 nM-5 nM final) diluted in assay buffer (50 mM HEPES, 10 mM MgCl2, 1 mM CHAPS pH 7.4 with 1 mM DTT and 0.01% w/v BSA) was added to wells containing various concentrations of compound or DMSO vehicle (1.7% final). The reaction was initiated by the addition of GST-IB substrate (25 nM final)/ATP (1 μM final), in a total volume of 6 μl. The reaction was incubated for 15 minutes at room temperature, then terminated by the addition of 3 μl of detection reagent in buffer containing 50 mM EDTA (100 mM HEPES pH 7.4, 150 mM NaCl, 50 mM EDTA and 0.01% w/v BSA) containing antiphosphoserine-IB-32/36 monoclonal antibody 12C2 (Cell Signalling Technology, Beverly Mass., USA) labelled with W-1024 europium chelate (Wallac OY, Turku, Finland), and an APC-labelled anti-GST antibody (Prozyme, San Leandro, Calif., USA) was added and the reaction was further incubated for 60 minutes at room temperature. The degree of phosphorylation of GST-IB was measured using a BMG Rubystar plate reader (BMG Labtech, Aylesbury, UK) as a ratio of specific 665 nm energy transfer signal to reference europium 620 nm signal.

[2] = tested on: human monocyte stimulated cytokine production (TNF-α); test: Monocyte assay (LPS-stimulated TNF-α production); format: cell-based; conditions: 200 ng/mL LPS, 24 hrs, TNF-α by ELISA
Protocol: Effect of IKK-β inhibition on human monocyte stimulated cytokine production was assessed as follows: Monocytes were isolated from heparinized whole blood by Ficoll gradient, followed by purification of CD14+ cells using MACS magnetic cell separation beads. Isolated monocytes were then adhered to 96-well culture plates at 1×10^6 cells/mL in RPMI 1640 10% FBS (JRH Biosciences, Lenexa Kans.) for 2 h. Test compounds are added to the wells 30 minutes prior to stimulation with a final vehicle concentration of 0.1% DMSO. Monocytes were activated by the addition of 200 ng/mL endotoxin (LPS; E. coli serotype 026:B6)(Sigma, St. Louis, Mo.) and incubated for 24 hrs at 37 C. Cell-free supernates were analyzed by ELISA for TNF-α using Pharmingen matched pair Abs. Viability of the cells was determined by 10% trypan blue exclusion.

| SMILES | pIC50 against IKK2 [1] | IC50 ([2]; trifluoroacetate) | IC50 [2] |
| --- | --- | --- | --- |
| CCS(=O)(=O)N1CCC(c2c[nH]c3c(C(N)=O)cc(-c4cccc(CN(C)C)c4)cc23)CC1.O=C(O)C(F)(F)F [Example 87, 5-{3-[(dimethylamino)methyl]phenyl}-3-[1-(ethylsulfonyl)-4-piperidinyl]-1H-indole-7-carboxamide trifluoroacetate] | ≥ 5.0 |  |  |
| CCS(=O)(=O)N1CCC(c2c[nH]c3c(C(N)=O)cc(-c4csc(CN5CCCC5CC(C)C)c4)cc23)CC1 (stereo not drawn) [Example 97, 3-[1-(ethylsulfonyl)-4-piperidinyl]-5-(5-{[2-(2-methylpropyl)-1-pyrrolidinyl]methyl}-3-thienyl)-1H-indole-7-carboxamide] | ≥ 5.0 |  |  |
| CCS(=O)(=O)N1CCC(c2c[nH]c3c(C(N)=O)cc(-c4csc(CN5CCC[C@H]5COC)c4)cc23)CC1.O=C(O)C(F)(F)F [Example 123, 3-[1-(ethylsulfonyl)-4-piperidinyl]-5-[5-({(2S)-2-[(methyloxy)methyl]-1-pyrrolidinyl}methyl)-3-thienyl]-1H-indole-7-carboxamide trifluoroacetate] | ≥ 5.0 |  |  |
| CCS(=O)(=O)N1CCC(c2c[nH]c3c(C(N)=O)cc(-c4ccc(CN5CCCCC5)cc4)cc23)CC1.O=C(O)C(F)(F)F [Example 137, 3-[1-(ethylsulfonyl)-4-piperidinyl]-5-[4-(1-piperidinylmethyl)phenyl]-1H-indole-7-carboxamide trifluoroacetate] | ≥ 5.0 | > 1000 nM |  |
| CCS(=O)(=O)N1CCC(c2c[nH]c3c(C(N)=O)cc(-c4ccc(CN5CCOCC5)cc4)cc23)CC1 [Example 148, 3-[1-(ethylsulfonyl)-4-piperidinyl]-5-[4-(4-morpholinylmethyl)phenyl]-1H-indole-7-carboxamide] | ≥ 5.0 |  | > 1000 nM |
| CCNCc1ccc(-c2cc(C(N)=O)c3[nH]cc(C4CCN(S(=O)(=O)CC)CC4)c3c2)s1 [Example 168, 5-{5-[(ethylamino)methyl]-2-thienyl}-3-[1-(ethylsulfonyl)-4-piperidinyl]-1H-indole-7-carboxamide] |  |  | > 1000 nM |
| CCS(=O)(=O)N1CCC(c2c[nH]c3c(C(N)=O)cc(-c4cccc(CNS(=O)(=O)c5ccc(C(C)(C)C)cc5)c4)cc23)CC1 [Example 383, 5-{3-[({[4-(1,1-dimethylethyl)phenyl]sulfonyl}amino)methyl]phenyl}-3-[1-(ethylsulfonyl)-4-piperidinyl]-1H-indole-7-carboxamide] |  |  | > 1000 nM |

From patent US8063071B2 (GlaxoSmithKline, LLC, priority 2007, dated 2011)
